This is an account of results in article PMC7367184.

This assay concerns the target T1, HA-HCF2 (host cell factor 2) (UniProt Q9Y5Z7).
T1 sequence: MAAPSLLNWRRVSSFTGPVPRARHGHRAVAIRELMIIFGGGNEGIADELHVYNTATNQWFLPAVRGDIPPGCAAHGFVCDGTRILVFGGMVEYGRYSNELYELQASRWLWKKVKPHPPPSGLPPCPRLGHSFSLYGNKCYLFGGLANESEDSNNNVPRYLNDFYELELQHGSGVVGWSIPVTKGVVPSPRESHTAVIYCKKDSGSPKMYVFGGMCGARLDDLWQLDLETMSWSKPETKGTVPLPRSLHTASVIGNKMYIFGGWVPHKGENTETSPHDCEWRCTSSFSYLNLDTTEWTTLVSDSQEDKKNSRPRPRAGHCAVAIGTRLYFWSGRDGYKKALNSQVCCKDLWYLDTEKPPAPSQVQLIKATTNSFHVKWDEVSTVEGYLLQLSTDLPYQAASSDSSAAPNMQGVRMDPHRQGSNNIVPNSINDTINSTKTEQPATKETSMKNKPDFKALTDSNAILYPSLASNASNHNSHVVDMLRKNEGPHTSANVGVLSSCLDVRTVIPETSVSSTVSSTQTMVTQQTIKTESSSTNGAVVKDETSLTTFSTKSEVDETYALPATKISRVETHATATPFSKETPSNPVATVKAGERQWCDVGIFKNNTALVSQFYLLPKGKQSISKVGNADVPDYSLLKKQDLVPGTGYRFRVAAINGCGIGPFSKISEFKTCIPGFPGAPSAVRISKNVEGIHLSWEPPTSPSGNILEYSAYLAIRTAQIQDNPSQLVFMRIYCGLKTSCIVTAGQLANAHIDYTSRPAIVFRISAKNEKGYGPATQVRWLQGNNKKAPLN
Nature of the assay: co-IP; anti-HA agarose IP of whole cell extracts of 293T cells transfected with F-Siah1 proteins and HA-HCF1 or HA-HCF2; washes with buffer D with 0.3 M KCl, then 0.1 M KCl; Western blot. A general note: In western blotting, separated proteins are transferred to a membrane and probed.

No constants are given. Whether binding was seen depends on the method and setting. In cells and extracts the contact can be indirect. Binding can be weak; no strength is given. Where a sequence is shown, tags or fusion partners need not be part of it.

Regarding “Flag-tagged Siah1 SBD (just the substrate-binding domain) (domain or fragment)”, the binding entry is on record as “binds”.
